Publication PMC8278106
Results are given in words; binding and its absence hold for the method and conditions named. In cells and extracts the contact can be indirect. Binding can be weak; no strength is given.

Target: HIV-1 transactivator of transcription (Tat) (HIV-1)
Experiment: co-IP; HT1080 cells co-transfected with pcDNA-Tat and pCMV-JunB, lysed in RIPA buffer; 200 ug protein precipitated with anti-HIV-1 Tat antibody (ab43014 or NIH 2A4.1) and protein A agarose, overnight at 4°C; blot with anti-JunB; control IgG as negative control

B1: AP-1 factor JunB (protein, UniProt P17275 1-347)
chain: MCTKMEQPFYHDDSYTATGYGRAPGGLSLHDYKLLKPSLAVNLADPYRSLKAPGARGPGPEGGGGGSYFSGQGSDTGASLKLASSELERLIVPNSNGVITTTPTPPGQYFYPRGGGSGGGAGGAGGGVTEEQEGFADGFVKALDDLHKMNHVTPPNVSLGATGGPPAGPGGVYAGPEPPPVYTNLSSYSPASASSGGAGAAVGTGSSYPTTTISYLPHAPPFAGGHPAQLGLGRGASTFKEEPQTVPEARSRDATPPVSPINMEDQERIKVERKRLRNRLAATKCRKRKLERIARLEDKVKTLKAENAGLSSTAGLLREQVAQLKQKVMTHVSNGCQLLLGVKGHAF
binding: binds
